According to PubChem BioAssay AID2685 (National Center for Advancing Translational Sciences (NCATS), 2010):
The list shows a part of the results. Further columns of the screen follow, without active or inactive calls. Most of these compounds were active or inconclusive in the main read-out, so they are no random draw. The note in brackets gives the kind of curve behind each potency; many fits are weak.

Experiment: qHTS Assay for Lipid Storage Modulators in Drosophila S3 Cells;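 for cell number change: cells counted by Cell Tracker Red CMTPX staining in the red channel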
Settings: BODIPY lipid droplet fluorescence, 18-24 h; for cell number change: measured here: cell count max response, cells fed with added oleic acid
How it was run: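 Drosophila S3 cells loaded with oleic acid (400 uM, as added) and compounds at several concentrations; lipid droplets imaged by 488-nm laser-scanning cytometry, 500–530 nm intensity and object ratio to cell channel. Percent activity normalized to 20 uM Triacsin C.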

[1] = measured here: lipid fluorescence (Fed channel) AC50, cells fed with added oleic acid
[2] = measured here: cell number channel AC50, cells fed with added oleic acid

| Structure (SMILES) | cell number change [%] | AC50 [1] | AC50 [2] |
| --- | --- | --- | --- |
| CC(/C=N\N1CCN(Cc2ccc(C)cc2)CC1)=C\c1ccccc1 | -12 | 20.6 µM [falling, single point] | – |
| O=c1c2ccccc2nc(-c2ccccc2Cl)n1O | -3 | – | 0.517 µM [falling, full curve] |
| O=C(CN1CCN(c2ccc(F)cc2)CC1)Nc1ccccc1C(=O)NCCc1ccccc1 | 46.3 | 10.3 µM [rising, partial curve] | 11.6 µM [rising, partial curve, poor fit] |
| O=C(c1ccccc1)C1CCN(C(=O)c2ccc(Cl)cc2)CC1 | -23.9 | – | – |
| COc1ccc(N2CCN(S(=O)(=O)c3ccc(-n4cnnn4)c(C)c3)CC2)cc1 | 43.5 | 14.6 µM [rising, partial curve] | 29.1 µM [rising, single point] |
| CCN(CC)c1ccc(Nc2nc(N3CCOCC3)c3ccccc3n2)cc1 | -80.5 | 25.9 µM [falling, single point] | 14.6 µM [falling, single point] |
| O=C(CO/N=C/c1ccccc1OC(F)F)N1CCc2ccccc21 | 2.37 | – | – |
| CCn1c(SCC(=O)Nc2nc(C)cs2)nnc1C(C)NC(=O)c1ccccc1 (stereo not given) | -7.23 | 6.51 µM [falling, single point] | – |
| CCC(=O)N1CCN(c2ccccc2NC(=O)COc2cc(C)ccc2C(C)C)CC1 | -37.4 | – | 11.6 µM [falling, partial curve] |
| Cc1c(CCC(C)C)c(=O)n2c([nH]c3ccccc32)c1C#N | 8.66 | 3.66 µM [rising, single point] | – |
| Cc1cccc(Nc2nn3c(=O)c4ccccc4nc3s2)c1 | -20.6 | 4.11 µM [rising, partial curve] | – |
| CCCCCn1c(=O)[nH]c2cc(C(=O)NCc3ccco3)ccc2c1=O | -69.5 | 0.731 µM [falling, partial curve, poor fit] | 25.9 µM [falling, single point] |
| Cc1cc(N=Nc2ccccc2C(=O)O)c(C)c(C)c1O | -1.68 | – | – |
| O=C(/C=C/c1ccccc1)N(c1ccccn1)C1CCCCC1 | – | 14.6 µM [rising, partial curve] | – |
| CN(CC(=O)NCc1ccncc1)S(=O)(=O)c1cc(Cl)ccc1Cl | 32.9 | 29.1 µM [rising, single point] | – |
| Cc1cc(C(=O)NC2CCCc3c2cnn3-c2cccc(C)c2C)n(C)n1 (stereo not given) | – | 0.731 µM [falling, partial curve, poor fit] | – |
| COc1ccc(C(=O)NN2CCOCC2)cc1[N+](=O)[O-] | -18.5 | 3.98 µM [falling, single point] | – |
| CCOC(=O)C(=CNc1cc(C)nn1-c1ccc(Cl)cc1)C(=O)OCC | 23.9 | 6.51 µM [rising, partial curve, poor fit] | 1.64 µM [rising, partial curve] |
| C[C@H]1CN=C(N(C)C)N1CCCC1CCCC1 | 14.4 | 0.116 µM [falling, full curve, poor fit] | 0.082 µM [falling, full curve, poor fit] |
| Cc1cc(Cl)ccc1OCC(=O)NNC(=O)c1ccco1 | -13.8 | – | – |
| CNc1ccc(C(=O)c2ccccc2C(=O)O)cc1[N+](=O)[O-] | 31.5 | – | 0.092 µM [falling, full curve, poor fit] |

| Structure (SMILES) | cell number change [%] | AC50 [1] | AC50 [2] |
| --- | --- | --- | --- |
| CN(C(=O)COC(=O)c1ccccc1SCC(=O)N1CCCC1)C1(C#N)CCCCC1 | -21.6 | 1.64 µM [rising, partial curve] | – |
| COC1CCCN(C(=O)c2ccc3oc(Cc4ccc(Cl)cc4)nc3c2)C1 (stereo not given) | 34.6 | 1.03 µM [rising, single point] | 23.1 µM [rising, single point] |
| COc1ccc(C(=O)CSc2n[nH]c(=O)[nH]c2=O)cc1 | 17.2 | – | – |
| Cc1ccc(-c2cc(-c3ccc4c(c3)OCO4)c(C#N)c(N)n2)o1 | -12.4 | – | – |
| CCCS(=O)(=O)N1CCCC(C(=O)NCCN2CCOCC2)C1 (stereo not given) | 6.28 | – | – |
| COc1ccc2cc(C3(C)NC(=O)NC3=O)ccc2c1 (stereo not given) | 0.628 | 4.11 µM [rising, single point] | – |
| Cc1ccc(S(=O)(=O)c2c(C)c(C)c(C)[nH]c2=O)cc1 | 20.6 | 3.66 µM [rising, full curve, poor fit] | – |
| Cc1ccc2cc(C#N)c(SCC(=O)Nc3ccc4sc(C)nc4c3)nc2c1 | 48.7 | 6.51 µM [rising, single point] | 5.8 µM [rising, full curve] |
| CC1CCc2c(sc3ncnc(SCC(=O)Nc4ccc(C(=O)O)cc4)c23)C1 (stereo not given) | -1.28 | 5.17 µM [rising, single point] | – |
| Cc1cc(C(=O)COC(=O)c2ccc3c(c2)NC(=O)CS3)c(C)n1CCc1ccc(Cl)cc1 | 36 | – | 1.3 µM [rising, full curve, poor fit] |
| Cc1ccccc1NC(=S)Nc1cccc2cnccc12 | 7.51 | 29.1 µM [rising, single point] | – |
| CS(=O)(=O)N(CC(=O)N1CCc2ccccc2C1)c1ccc2c(c1)OCO2 | 1.08 | 2.91 µM [rising, partial curve] | – |
| COc1ccccc1OCC(=O)NCC1CCCN(C(=O)c2ccccc2C(C)=O)C1 (stereo not given) | 6.93 | – | – |
| COc1ccc(Br)cc1CNCC1CCCO1 (stereo not given) | -0.88 | – | – |
| Cc1noc(C)c1S(=O)(=O)N1CCC(C(=O)O)CC1 | -17.5 | 0.00461 µM [falling, full curve, poor fit] | – |
| COC(Cc1nnc(SC)n1-c1ccccc1)OC | 51.4 | – | 10.3 µM [rising, partial curve, poor fit] |
| C/C(=N\NC(=O)c1cccc(F)c1)c1ccc(Br)s1 | 6.98 | 10.3 µM [rising, partial curve] | – |
| O=c1[nH]c2ccccc2c2nc3ccccn3c12 | -5.71 | – | – |
| C=CCNC1=C(Cl)C(=O)N(c2ccccc2Cl)C1=O | 2.05 | 0.184 µM [falling, full curve, poor fit] | – |
| CCNC(=O)COc1ccc(/C=N/NC(=O)c2cccnc2)cc1OC | -33.4 | – | 0.708 µM [falling, full curve, poor fit] |
| CCC(=O)Nc1ccc(N2CCN(C(=O)c3ccccc3C)CC2)cc1 | 25.3 | 29.1 µM [rising, single point] | – |

| Structure (SMILES) | cell number change [%] | AC50 [1] | AC50 [2] |
| --- | --- | --- | --- |
| COc1ccc(/C=C(/NC(=O)c2ccco2)C(=O)NCCc2ccccc2)cc1 | 4.82 | 29.1 µM [rising, single point] | 0.058 µM [rising, full curve, poor fit] |
| CC(=O)Nc1ccc(NC(=O)CSc2ccc3nnc(-c4ccccn4)n3n2)cc1 | -0.601 | 0.731 µM [rising, full curve, poor fit] | – |
| C=CCn1c(COc2ccc(F)cc2)nnc1SCC(=O)NC1CCS(=O)(=O)C1 (stereo not given) | 13.5 | 2.31 µM [rising, partial curve, poor fit] | – |
| Cc1ccc(C)c(N(CC(=O)N2CCCCCC2)S(C)(=O)=O)c1 | 8.21 | 16.4 µM [rising, partial curve] | – |
| CCCC[C@H]1COCCS(=O)(=O)N1Cc1ccc(Br)cc1 | -9.28 | 29.1 µM [falling, single point] | – |
| O=C(CN1CCCC1)Nc1ccc2c(c1)CCC2 | -37.2 | 0.731 µM [falling, full curve] | – |
| NS(=O)(=O)c1ccc(NC(=O)CN2CCN(S(=O)(=O)c3cccs3)CC2)cc1 | 24.5 | – | – |
| C#CCOCCOCCOCCNc1nc(N2CCN(C(=O)[C@H](CCC(=O)O)n3cc(C(N)CC(C)C)nn3)CC2)nc(N2CCN(C(=O)[C@H](CCC(=O)O)n3cc(C(N)[C@H](C)CC)nn3)CC2)n1 (stereo not given in full) | -20 | 5.8 µM [falling, full curve] | – |
| CSc1snnc1-c1ccccc1 | – | 1.03 µM [rising, single point] | 0.82 µM [rising, single point] |
| O=c1nccc(NCc2ccco2)[nH]1 | -2.04 | 0.00184 µM [falling, full curve, poor fit] | – |
| CC1=CC(C)(C)[N+](C)(C)c2ccc(C)cc21 | 9.62 | 6.51 µM [falling, single point] | 6.51 µM [falling, single point] |
| CCOC(=O)c1ccc(C(=O)OCC)nc1 | -72.7 | – | 29.1 µM [falling, single point] |
| COC(=O)c1ccc(-c2csc(NC(=O)c3c(C)noc3C)n2)cc1 | -19.6 | 1.46 µM [rising, partial curve] | – |
| CCOc1ccc(NC(=O)COC(=O)c2ccc3c(c2)OCO3)cc1 | -3.38 | 29.1 µM [rising, single point] | – |
| O=C(O)CCc1ccc(-c2ccccc2)n1NC(=O)c1cccs1 | 6.7 | – | – |
| O=C(/C=C/c1ccc2ccccc2n1)c1cc(Cl)ccc1O | 3.74 | 5.8 µM [falling, full curve, poor fit] | – |
| S=C(NCCCN1CCOCC1)Nc1ccc(Cl)c(Cl)c1 | 4.97 | 0.326 µM [rising, full curve, poor fit] | – |
| O=C(NC(=S)Nc1ccc([N+](=O)[O-])cc1O)C1CCCCC1 | -30.3 | 20.6 µM [falling, single point] | 32.6 µM [falling, single point] |
| COC(=O)c1sc2ncccc2c1OCc1c(Cl)cccc1Cl | -44.8 | 2.31 µM [falling, partial curve] | 20.6 µM [falling, single point] |

Three structures already listed, sorted by number of heavy atoms, largest number first.

| Structure (SMILES) | cell number change [%] | AC50 [1] | AC50 [2] |
| --- | --- | --- | --- |
| COc1ccc(N2CCN(S(=O)(=O)c3ccc(-n4cnnn4)c(C)c3)CC2)cc1 | 43.5 | 14.6 µM [rising, partial curve] | 29.1 µM [rising, single point] |
| Cc1ccc(-c2cc(-c3ccc4c(c3)OCO4)c(C#N)c(N)n2)o1 | -12.4 | – | – |
| CSc1snnc1-c1ccccc1 | – | 1.03 µM [rising, single point] | 0.82 µM [rising, single point] |
